These are yes or no findings as the source states them, for the method shown. For part of these data: In cells and extracts the contact can be indirect.
Legend:
[1] = biological target: T1, FAM21 (endogenous, Kc cell nuclear lysate) (Drosophila (endogenous in Kc cells)) (UniProt A1ZBW7); assay: native gel or EMSA
T1 sequence: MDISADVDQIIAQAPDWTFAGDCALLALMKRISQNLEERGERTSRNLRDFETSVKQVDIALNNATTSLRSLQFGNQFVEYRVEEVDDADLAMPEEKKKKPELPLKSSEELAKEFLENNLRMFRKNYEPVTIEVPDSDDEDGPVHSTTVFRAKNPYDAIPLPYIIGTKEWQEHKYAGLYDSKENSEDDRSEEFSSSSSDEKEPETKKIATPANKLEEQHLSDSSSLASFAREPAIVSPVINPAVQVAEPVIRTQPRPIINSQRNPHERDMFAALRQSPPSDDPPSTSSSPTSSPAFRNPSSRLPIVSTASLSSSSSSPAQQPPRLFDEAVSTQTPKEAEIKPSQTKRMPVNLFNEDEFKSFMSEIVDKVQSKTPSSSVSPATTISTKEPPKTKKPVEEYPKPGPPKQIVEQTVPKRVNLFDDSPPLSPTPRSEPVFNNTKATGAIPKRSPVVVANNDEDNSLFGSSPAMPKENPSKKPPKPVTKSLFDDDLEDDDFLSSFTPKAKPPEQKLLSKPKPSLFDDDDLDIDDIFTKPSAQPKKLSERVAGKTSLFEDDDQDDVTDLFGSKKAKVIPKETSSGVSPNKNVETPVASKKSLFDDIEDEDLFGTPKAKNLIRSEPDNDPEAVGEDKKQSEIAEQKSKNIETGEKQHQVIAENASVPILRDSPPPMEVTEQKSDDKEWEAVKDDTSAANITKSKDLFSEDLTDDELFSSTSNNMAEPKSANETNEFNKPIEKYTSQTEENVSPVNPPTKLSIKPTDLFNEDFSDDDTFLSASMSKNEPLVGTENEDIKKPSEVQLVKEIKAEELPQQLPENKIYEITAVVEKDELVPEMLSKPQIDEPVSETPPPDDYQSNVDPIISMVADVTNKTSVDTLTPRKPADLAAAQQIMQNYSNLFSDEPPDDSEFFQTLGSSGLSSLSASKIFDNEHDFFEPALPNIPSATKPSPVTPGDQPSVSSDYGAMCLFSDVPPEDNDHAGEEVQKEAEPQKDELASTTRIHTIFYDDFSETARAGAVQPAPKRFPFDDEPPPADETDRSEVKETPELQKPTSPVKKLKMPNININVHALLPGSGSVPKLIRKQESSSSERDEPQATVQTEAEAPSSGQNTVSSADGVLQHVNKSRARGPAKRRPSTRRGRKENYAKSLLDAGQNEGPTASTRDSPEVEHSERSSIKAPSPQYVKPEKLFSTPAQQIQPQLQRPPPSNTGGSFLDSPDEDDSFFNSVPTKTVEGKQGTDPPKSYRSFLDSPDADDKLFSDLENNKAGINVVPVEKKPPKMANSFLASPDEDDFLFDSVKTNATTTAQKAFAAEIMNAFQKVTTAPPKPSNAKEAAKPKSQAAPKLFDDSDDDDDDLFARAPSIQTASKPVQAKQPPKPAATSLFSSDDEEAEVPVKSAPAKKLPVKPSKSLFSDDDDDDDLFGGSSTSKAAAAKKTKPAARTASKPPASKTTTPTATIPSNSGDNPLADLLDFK

[2] = biological target: T2, CCDC53 (endogenous, Kc cell nuclear lysate) (Drosophila (endogenous in Kc cells)) (UniProt Q9VLT8); assay: co-IP
T2 sequence: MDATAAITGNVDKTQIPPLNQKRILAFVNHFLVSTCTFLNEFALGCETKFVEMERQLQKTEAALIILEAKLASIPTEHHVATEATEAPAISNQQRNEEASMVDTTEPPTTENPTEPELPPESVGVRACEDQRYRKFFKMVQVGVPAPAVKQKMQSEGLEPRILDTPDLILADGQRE

[3] = biological target: T1, FAM21 (endogenous, Kc cell nuclear lysate) (Drosophila (endogenous in Kc cells)); assay: co-IP

Measured: binding

Pavarotti (endogenous)
no binding: [1] | [2] | [3]
